Patent US5783434A, “Cathepsin and methods and compositions for inhibition thereof” (priority 1995, dated 1998)
Some of these results come from one statement about several compounds together. Where a SMILES comes first, the peptide text is derived from it. [ ]: non-standard residue; d: D form. The star is where a group is joined. hPhe = N[CH](CCc1ccccc1)C(=O)O; Cbz = O=C(OCc1ccccc1)*; CHN2 = [N-]=[N+]=C*; CH2F = FC*

These compounds were tested on β-amyloid production in 293 751 SWE cells (assay: Cellular screen for inhibition of β-amyloid peptide production (ELISA, MTT-normalised)). Conditions: two hour pretreatment plus two hours.
Assay type: cell-based, human
For CC(C)[C@H](NC(=O)c1ccc2ccccc2n1)C(=O)N[C@H](C=O)Cc1ccccc1 [Example 21], the “reduction of β-amyloid peptide production as compared to control” value (from here on “reduction”) was “able to reduce β-amyloid peptide production as compared to control”. For O=C[C@H](Cc1ccccc1)NC(=O)C1c2ccccc2Oc2ccccc21 [Example 64], the “reduction” value was “able to reduce β-amyloid peptide production as compared to control”. With O=C[C@H](Cc1c[nH]c2ccccc12)NC(=O)C(c1ccccc1)C1CCCCC1 (stereo partly shown) [Example 68] the “reduction” value was “able to reduce β-amyloid peptide production as compared to control”. For CC(C)[C@H](NC(=O)OCc1ccccc1)C(=O)N[C@H](C=O)CCc1ccccc1 [Example 37] (Cbz-Val-[hPhe]-aldehyde), the “reduction” value was “able to reduce β-amyloid peptide production as compared to control”. CSCC[C@@H](C=O)NC(=O)[C@@H](NC(=O)OCc1ccccc1)C(C)C [Example 47] (Cbz-Val-Met-aldehyde) was tested, and the “reduction” value was “able to reduce β-amyloid peptide production as compared to control”. CON(C)C(=O)[C@H](CCc1ccccc1)NC(=O)C(c1ccccc1)c1ccccc1 [Example 50] was tested, and the “reduction” value was “able to reduce β-amyloid peptide production as compared to control”. In the case of CC(C)[C@H](NC(=O)OCc1ccccc1)C(=O)N[C@@H](C=O)Cc1ccccc1 [Example 16] (Cbz-Val-[dF]-aldehyde), the “reduction” value is reported as “able to reduce β-amyloid peptide production as compared to control”. O=C[C@H](Cc1ccccc1)NC(=O)c1ccccc1Oc1ccccc1 [Example 71] was tested, and the “reduction” value was “able to reduce β-amyloid peptide production as compared to control”. In the case of CC(C)CC(NC(=O)OCc1ccccc1)C(=O)NC(CCc1ccccc1)C(=O)CF (stereo not drawn) [Example 77] (Cbz-Leu-[hPhe]-CH2F; configuration not given here), the “reduction” value is reported as “able to reduce β-amyloid peptide production as compared to control”. CON(C)C(=O)[C@H](CCc1ccccc1)NC(=O)[C@H](NC(=O)OCc1ccccc1)C(C)C [Example 36] was tested, and the “reduction” value was “able to reduce β-amyloid peptide production as compared to control”. With CC(C)[C@H](NC(=O)c1cccc2ccccc12)C(=O)N[C@H](C=O)Cc1ccccc1 [Example 19] the “reduction” value was “able to reduce β-amyloid peptide production as compared to control”. For O=C[C@H](Cc1ccccc1)NC(=O)Cc1ccccc1 [Example 59], the “reduction” value was “able to reduce β-amyloid peptide production as compared to control”. For CON(C)C(=O)[C@H](CC(C)C)NC(=O)[C@@H](NC(=O)OCc1ccccc1)C(C)C [Example 33], the “reduction” value was “able to reduce β-amyloid peptide production as compared to control”. O=C[C@H](Cc1ccccc1)NC(=O)C(c1ccccc1)(c1ccccc1)c1ccccc1 [Example 5] was tested, and the “reduction” value was “able to reduce β-amyloid peptide production as compared to control”. CON(C)C(=O)[C@H](Cc1ccccc1)NC(=O)C(c1ccccc1)C1CCCCC1 (stereo partly shown) [Example 53] was tested, and the “reduction” value was “able to reduce β-amyloid peptide production as compared to control”. CON(C)C(=O)[C@H](Cc1ccccc1)NC(=O)C1c2ccccc2-c2ccccc21 [Example 63] was tested, and the “reduction” value was “able to reduce β-amyloid peptide production as compared to control”. For O=C[C@H](Cc1ccccc1)NC(=O)C1c2ccccc2-c2ccccc21 [Example 65], the “reduction” value was “able to reduce β-amyloid peptide production as compared to control”. CCN(OC)C(=O)[C@H](Cc1ccccc1)NC(=O)C(Cc1ccccc1)c1ccccc1 (stereo partly shown) [Example 58] was tested, and the “reduction” value was “able to reduce β-amyloid peptide production as compared to control”. In the case of CON(C)C(=O)[C@H](CCSC)NC(=O)[C@@H](NC(=O)OCc1ccccc1)C(C)C [Example 46], the “reduction” value is reported as “able to reduce β-amyloid peptide production as compared to control”. For O=C[C@H](Cc1ccccc1)NC(=O)C(c1ccccc1)c1ccccc1 [Example 3], the “reduction” value was “able to reduce β-amyloid peptide production as compared to control”. With CC(CCC(=O)N[C@H](C=O)Cc1ccccc1)(c1ccc(O)cc1)c1ccc(O)cc1 [Example 72] the “reduction” value was “able to reduce β-amyloid peptide production as compared to control”. In the case of CON(C)C(=O)[C@H](CC(C)C)NC(=O)[C@H](CC(C)C)NC(=O)OCc1ccccc1 [Example 31], the “reduction” value is reported as “able to reduce β-amyloid peptide production as compared to control”. CON(C)C(=O)[C@H](Cc1ccccc1)NC(=O)C(c1ccccc1)c1ccccc1 [Example 40] was tested, and the “reduction” value was “able to reduce β-amyloid peptide production as compared to control”. With O=C[C@H](CCc1ccccc1)NC(=O)C(c1ccccc1)c1ccccc1 [Example 6] the “reduction” value was “able to reduce β-amyloid peptide production as compared to control”. In the case of CON(C)C(=O)[C@H](CC1CCCCC1)NC(=O)C(c1ccccc1)c1ccccc1 [Example 69], the “reduction” value is reported as “able to reduce β-amyloid peptide production as compared to control”. In the case of CON(C)C(=O)[C@H](Cc1c[nH]c2ccccc12)NC(=O)C(c1ccccc1)C1CCCCC1 (stereo partly shown) [Example 67], the “reduction” value is reported as “able to reduce β-amyloid peptide production as compared to control”. With CON(C)C(=O)[C@H](Cc1ccc2ccccc2c1)NC(=O)C(c1ccccc1)c1ccccc1 [Example 70] the “reduction” value was “able to reduce β-amyloid peptide production as compared to control”. With CON(C)C(=O)[C@H](Cc1ccccc1)NC(=O)C(=Cc1ccccc1)c1ccccc1 [Example 56] the “reduction” value was “able to reduce β-amyloid peptide production as compared to control”. CON(C)C(=O)[C@H](Cc1c[nH]c2ccccc12)NC(=O)C(c1ccccc1)c1ccccc1 [Example 61] was tested, and the “reduction” value was “able to reduce β-amyloid peptide production as compared to control”. CON(C)C(=O)[C@H](Cc1ccccc1)NC(=O)[C@@H](NC(=O)c1ccc2ccccc2n1)C(C)C [Example 18] was tested, and the “reduction” value was “able to reduce β-amyloid peptide production as compared to control”. CON(C)C(=O)[C@H](CCc1ccccc1)NC(=O)CCCCc1ccccc1 [Example 51] was tested, and the “reduction” value was “able to reduce β-amyloid peptide production as compared to control”. CON(C)C(=O)[C@H](Cc1c[nH]c2ccccc12)NC(=O)C(Cc1ccccc1)c1ccccc1 (stereo partly shown) [Example 43] was tested, and the “reduction” value was “able to reduce β-amyloid peptide production as compared to control”. For CC(C)C(NC(=O)OCc1ccccc1)C(=O)NC(Cc1ccccc1)C(=O)CF (stereo not drawn) [Example 78] (Cbz-Val-Phe-CH2F; configuration not given here), the “reduction” value was “able to reduce β-amyloid peptide production as compared to control”. In the case of O=C[C@H](Cc1ccccc1)NC(=O)C(c1ccccc1)C1CCCCC1 (stereo partly shown) [Example 55], the “reduction” value is reported as “able to reduce β-amyloid peptide production as compared to control”. In the case of CC(C)[C@@H](NC(=O)OCc1ccccc1)C(=O)N[C@H](C=O)Cc1ccccc1 [Example 24] (Cbz-[dV]-Phe-aldehyde), the “reduction” value is reported as “able to reduce β-amyloid peptide production as compared to control”. For O=C(N[C@@H](Cc1ccccc1)C(=O)OCc1ccccc1)C(=Cc1ccccc1)c1ccccc1 [Example 42], the “reduction” value was “able to reduce β-amyloid peptide production as compared to control”. For O=C[C@H](Cc1ccccc1)NC(=O)CCCCc1ccccc1 [Example 4], the “reduction” value was “able to reduce β-amyloid peptide production as compared to control”. O=C[C@H](Cc1ccccc1)NC(=O)C(=Cc1ccccc1)c1ccccc1 [Example 7] was tested, and the “reduction” value was “able to reduce β-amyloid peptide production as compared to control”. In the case of CC(C)[C@H](NC(=O)OCc1ccccc1)C(=O)N[C@@H](Cc1ccccc1)C(=O)C=[N+]=[N-] [Example 1] (Cbz-Val-Phe-CHN2), the “reduction” value is reported as “able to reduce β-amyloid peptide production as compared to control”. CC(C)C[C@@H](C=O)NC(=O)[C@@H](NC(=O)OCc1ccccc1)C(C)C [Example 10] (Cbz-Val-Leu-aldehyde) was tested, and the “reduction” value was “able to reduce β-amyloid peptide production as compared to control”. For CC(C)[C@H](NC(=O)c1ccc2ccccc2c1)C(=O)N[C@H](C=O)Cc1ccccc1 [Example 20], the “reduction” value was “able to reduce β-amyloid peptide production as compared to control”. With O=C[C@H](Cc1ccccc1)NC(=O)OCc1ccccc1 [Example 39] the “reduction” value was “able to reduce β-amyloid peptide production as compared to control”. In the case of CON(C)C(=O)[C@@H](Cc1ccccc1)NC(=O)[C@H](CC(C)C)NC(=O)OCc1ccccc1 [Example 27], the “reduction” value is reported as “able to reduce β-amyloid peptide production as compared to control”.
